Data reported in article PMC7862307.
No constants are given. Whether binding was seen depends on the method and setting. In cells and extracts the contact can be indirect. Some results given as binding are weak or reduced against the parent protein; the word gives no strength.

The chains behind the UniProt entries cited, without tags or fusion partners.
UniProt Q9NPD8: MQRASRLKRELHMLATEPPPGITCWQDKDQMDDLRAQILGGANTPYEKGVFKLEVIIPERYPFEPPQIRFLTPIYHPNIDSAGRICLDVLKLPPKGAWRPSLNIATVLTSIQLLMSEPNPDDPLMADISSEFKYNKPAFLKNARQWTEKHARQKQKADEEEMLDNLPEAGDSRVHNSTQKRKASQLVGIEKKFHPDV
UniProt Q7Z6Z7: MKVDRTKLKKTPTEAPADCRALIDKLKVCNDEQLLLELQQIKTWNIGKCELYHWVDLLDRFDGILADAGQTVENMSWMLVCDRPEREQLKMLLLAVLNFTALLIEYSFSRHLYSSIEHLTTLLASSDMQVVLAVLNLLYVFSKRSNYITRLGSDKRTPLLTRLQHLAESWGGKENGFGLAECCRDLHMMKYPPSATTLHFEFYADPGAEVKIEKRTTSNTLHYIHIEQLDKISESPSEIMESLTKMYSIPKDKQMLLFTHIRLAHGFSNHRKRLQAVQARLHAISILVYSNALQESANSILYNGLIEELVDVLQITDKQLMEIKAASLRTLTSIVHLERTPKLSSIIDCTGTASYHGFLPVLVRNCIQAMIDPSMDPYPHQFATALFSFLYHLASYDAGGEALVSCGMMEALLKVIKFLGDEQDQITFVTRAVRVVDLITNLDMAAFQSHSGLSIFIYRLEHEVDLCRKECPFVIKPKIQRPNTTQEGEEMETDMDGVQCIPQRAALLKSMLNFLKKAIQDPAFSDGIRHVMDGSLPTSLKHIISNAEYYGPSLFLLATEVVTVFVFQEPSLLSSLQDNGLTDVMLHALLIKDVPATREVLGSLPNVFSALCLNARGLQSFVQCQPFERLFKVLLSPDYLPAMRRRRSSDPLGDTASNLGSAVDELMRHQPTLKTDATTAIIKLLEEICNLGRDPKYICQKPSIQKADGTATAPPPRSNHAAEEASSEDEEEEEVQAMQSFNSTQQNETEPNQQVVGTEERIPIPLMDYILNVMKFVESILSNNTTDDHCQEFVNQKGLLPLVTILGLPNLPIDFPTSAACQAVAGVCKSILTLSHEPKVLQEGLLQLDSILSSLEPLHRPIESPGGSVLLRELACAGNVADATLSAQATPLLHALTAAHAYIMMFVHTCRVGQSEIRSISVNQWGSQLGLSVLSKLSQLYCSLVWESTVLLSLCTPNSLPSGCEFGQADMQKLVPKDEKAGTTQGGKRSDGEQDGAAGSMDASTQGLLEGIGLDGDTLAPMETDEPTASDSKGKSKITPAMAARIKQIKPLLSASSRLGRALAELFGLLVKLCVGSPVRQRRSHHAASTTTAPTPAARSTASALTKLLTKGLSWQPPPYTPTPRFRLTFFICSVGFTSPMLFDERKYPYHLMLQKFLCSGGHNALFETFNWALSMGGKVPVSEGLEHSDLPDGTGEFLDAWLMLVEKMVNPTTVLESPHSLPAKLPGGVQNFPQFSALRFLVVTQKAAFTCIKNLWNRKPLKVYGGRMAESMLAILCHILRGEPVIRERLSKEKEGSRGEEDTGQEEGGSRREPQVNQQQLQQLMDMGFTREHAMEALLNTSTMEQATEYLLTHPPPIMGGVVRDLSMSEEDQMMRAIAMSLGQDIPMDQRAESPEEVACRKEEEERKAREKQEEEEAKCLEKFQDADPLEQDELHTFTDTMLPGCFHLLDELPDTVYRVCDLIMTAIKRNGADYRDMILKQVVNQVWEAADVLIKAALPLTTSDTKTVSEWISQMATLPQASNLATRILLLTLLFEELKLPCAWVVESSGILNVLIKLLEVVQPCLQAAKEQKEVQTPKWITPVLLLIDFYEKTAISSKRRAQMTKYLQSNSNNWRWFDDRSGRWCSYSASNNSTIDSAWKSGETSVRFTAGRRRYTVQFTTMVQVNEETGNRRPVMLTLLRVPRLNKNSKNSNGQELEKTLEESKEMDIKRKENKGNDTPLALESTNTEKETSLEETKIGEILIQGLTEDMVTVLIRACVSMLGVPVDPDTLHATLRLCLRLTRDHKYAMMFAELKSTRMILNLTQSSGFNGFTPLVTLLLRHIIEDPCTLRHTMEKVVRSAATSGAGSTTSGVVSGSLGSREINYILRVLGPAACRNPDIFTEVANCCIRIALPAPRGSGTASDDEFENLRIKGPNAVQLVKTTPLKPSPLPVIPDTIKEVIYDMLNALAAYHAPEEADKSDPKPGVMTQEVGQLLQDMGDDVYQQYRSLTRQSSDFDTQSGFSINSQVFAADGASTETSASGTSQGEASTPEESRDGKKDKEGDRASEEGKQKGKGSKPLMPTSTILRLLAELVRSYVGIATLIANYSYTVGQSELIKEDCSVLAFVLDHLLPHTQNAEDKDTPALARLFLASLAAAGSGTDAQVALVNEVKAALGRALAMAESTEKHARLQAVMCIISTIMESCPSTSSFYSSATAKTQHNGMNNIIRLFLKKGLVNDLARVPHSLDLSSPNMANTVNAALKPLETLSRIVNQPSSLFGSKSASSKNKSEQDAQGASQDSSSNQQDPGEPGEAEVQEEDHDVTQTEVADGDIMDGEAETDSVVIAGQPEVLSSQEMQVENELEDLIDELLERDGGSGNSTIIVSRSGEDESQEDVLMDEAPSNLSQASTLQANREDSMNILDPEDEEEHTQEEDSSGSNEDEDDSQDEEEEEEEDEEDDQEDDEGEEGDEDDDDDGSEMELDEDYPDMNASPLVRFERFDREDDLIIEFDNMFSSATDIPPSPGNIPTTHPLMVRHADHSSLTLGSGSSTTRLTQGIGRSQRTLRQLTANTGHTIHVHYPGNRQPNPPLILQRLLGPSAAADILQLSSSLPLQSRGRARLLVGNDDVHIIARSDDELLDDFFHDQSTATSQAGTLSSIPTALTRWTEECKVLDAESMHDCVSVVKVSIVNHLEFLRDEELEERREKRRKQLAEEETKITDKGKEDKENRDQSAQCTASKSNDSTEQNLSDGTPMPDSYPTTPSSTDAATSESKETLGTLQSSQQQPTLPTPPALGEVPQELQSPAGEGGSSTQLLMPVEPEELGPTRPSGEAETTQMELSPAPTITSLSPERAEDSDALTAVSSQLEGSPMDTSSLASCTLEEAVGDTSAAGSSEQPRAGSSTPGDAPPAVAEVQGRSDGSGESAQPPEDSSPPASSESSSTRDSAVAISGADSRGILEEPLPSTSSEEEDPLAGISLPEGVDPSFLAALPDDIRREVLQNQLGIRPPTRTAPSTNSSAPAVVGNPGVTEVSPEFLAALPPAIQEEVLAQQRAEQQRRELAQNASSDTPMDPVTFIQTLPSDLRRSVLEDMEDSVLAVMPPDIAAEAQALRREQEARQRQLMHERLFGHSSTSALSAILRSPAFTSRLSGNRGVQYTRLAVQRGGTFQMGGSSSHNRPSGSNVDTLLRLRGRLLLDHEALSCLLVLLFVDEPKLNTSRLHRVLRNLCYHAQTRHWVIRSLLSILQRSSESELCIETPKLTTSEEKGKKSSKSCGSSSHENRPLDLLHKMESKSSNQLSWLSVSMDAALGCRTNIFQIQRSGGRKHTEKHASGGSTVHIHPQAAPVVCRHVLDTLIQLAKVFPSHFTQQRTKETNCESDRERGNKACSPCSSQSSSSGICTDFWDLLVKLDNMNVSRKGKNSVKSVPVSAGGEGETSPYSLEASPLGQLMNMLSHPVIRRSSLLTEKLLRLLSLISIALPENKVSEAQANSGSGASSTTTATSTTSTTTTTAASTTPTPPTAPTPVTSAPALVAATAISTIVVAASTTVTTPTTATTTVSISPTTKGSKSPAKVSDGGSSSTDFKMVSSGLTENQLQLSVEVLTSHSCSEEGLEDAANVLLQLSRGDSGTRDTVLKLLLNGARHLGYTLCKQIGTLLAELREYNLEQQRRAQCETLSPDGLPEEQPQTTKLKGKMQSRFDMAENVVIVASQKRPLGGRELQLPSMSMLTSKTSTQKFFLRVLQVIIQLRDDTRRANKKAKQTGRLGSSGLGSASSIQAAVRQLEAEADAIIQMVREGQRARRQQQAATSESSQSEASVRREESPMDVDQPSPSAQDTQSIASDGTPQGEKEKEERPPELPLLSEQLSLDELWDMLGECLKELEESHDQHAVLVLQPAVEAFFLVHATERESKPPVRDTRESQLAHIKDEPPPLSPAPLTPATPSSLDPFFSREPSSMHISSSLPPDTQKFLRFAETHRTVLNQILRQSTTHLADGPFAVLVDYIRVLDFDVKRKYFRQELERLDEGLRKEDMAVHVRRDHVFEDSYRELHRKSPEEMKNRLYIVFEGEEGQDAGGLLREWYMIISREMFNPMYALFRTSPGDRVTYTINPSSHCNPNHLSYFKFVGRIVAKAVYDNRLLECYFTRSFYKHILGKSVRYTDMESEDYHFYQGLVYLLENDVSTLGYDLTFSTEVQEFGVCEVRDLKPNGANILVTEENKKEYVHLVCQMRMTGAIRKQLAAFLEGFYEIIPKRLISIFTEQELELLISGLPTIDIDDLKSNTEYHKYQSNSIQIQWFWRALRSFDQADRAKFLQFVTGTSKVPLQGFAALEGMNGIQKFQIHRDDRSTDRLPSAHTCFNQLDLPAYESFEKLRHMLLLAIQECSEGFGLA

Experiments:
[1] = target: endogenous UBE2T of MHCC-97L cells (human (endogenous in MHCC-97L)) (UniProt Q9NPD8); assay: co-IP; reciprocal co-immunoprecipitation of endogenous UBE2T and Mule in MHCC-97L cells
[2] = target: SFB-UBE2T (ubiquitin-conjugating enzyme E2 T), stable clone in HEK293T (UniProt Q9NPD8); assay: co-IP; immunoprecipitation in HEK293T cells (Supplementary Fig. S6); details not shown
[3] = target: SFB-UBE2T expressed in Huh7 cells (UniProt Q9NPD8); assay: co-IP; SFB-UBE2T pulled down from Huh7 cells, Mule detected

## endogenous Mule of MHCC-97L cells (from UniProt Q7Z6Z7 1-4374) (enzyme)
[1]
  binding: binds

## Mcl-1 ubiquitin ligase E3 (Mule) of HEK293T cells (from UniProt Q7Z6Z7 1-4374) (enzyme)
[2]
  binding: binds

## Mule of Huh7 cells (from UniProt Q7Z6Z7 1-4374) (enzyme)
[3]
  binding: binds
